Results: paper PMC8184862

Protein sequences, listed by entry. Tags and fused reporters are not part of them.
UniProt P47196: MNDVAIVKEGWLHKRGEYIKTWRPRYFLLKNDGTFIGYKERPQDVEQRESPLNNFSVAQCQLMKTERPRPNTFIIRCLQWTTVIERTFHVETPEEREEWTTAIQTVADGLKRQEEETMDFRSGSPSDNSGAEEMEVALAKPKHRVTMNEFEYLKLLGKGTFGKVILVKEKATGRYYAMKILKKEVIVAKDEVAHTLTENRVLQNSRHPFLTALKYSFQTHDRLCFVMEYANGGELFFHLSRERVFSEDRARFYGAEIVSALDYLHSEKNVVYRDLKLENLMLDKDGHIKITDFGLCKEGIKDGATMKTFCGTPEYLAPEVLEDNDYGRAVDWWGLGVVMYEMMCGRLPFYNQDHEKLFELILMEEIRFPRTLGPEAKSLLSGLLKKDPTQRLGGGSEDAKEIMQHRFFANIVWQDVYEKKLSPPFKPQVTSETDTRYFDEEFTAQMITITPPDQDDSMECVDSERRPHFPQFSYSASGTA
UniProt P42930: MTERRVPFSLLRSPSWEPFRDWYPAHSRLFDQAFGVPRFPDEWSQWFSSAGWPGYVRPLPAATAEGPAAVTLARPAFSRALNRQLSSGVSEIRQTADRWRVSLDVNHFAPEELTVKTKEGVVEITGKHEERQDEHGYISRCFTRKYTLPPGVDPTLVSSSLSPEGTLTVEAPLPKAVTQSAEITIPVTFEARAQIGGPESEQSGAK

Target: Akt1 (rat (endogenous in REKs)) (UniProt P47196)
Assay: affinity purification with mass spectrometry; immunoprecipitation with an Akt1-specific antibody from REK lysate (RIPA buffer, Dynabeads Protein G); eight major SDS-PAGE gel bands analysed by LC-MS/MS; IgG1 control

binding: binds
Substance: HspB1 (from UniProt P42930 1-206)

These are yes or no findings as the source states them, for the method shown. Binding seen in cells or lysates may run through a third protein. These calls come from enrichment with a bait or labelling near it, and not all partners need be listed.
